From patent publication US5629294A, “Compositions and methods for preventing adhesion formation” (University of Southern California, priority 1994, dated 1997)
Part of at least one peptide drawing is inferred or uncertain, most often the ends.

Tested on: adhesion formation involving the uterine horns
Test: Adhesion formation after peritoneal surgery, rabbit double uterine horn model
Type: in vivo
Details: in the peritoneal cavity of the rabbits, Example 1

With `N=C(N)NCCC[C@H](N)C(=O)NCC(=O)N[C@@H](CC(=O)O)C(=O)O` [Arg--Gly--Asp, Arg-Gly-Asp] the “rate found effective for preventing adhesion formation” value was “about 0.2 μmol/min”.
